Source: ChEMBL document CHEMBL3988442, “University of Dundee, Small-Polar-MMV Screening Library” (2021).

By UniProt entry, the sequences of proteins in these tests, tags left out.
UniProt E9BF75, entry or part of it: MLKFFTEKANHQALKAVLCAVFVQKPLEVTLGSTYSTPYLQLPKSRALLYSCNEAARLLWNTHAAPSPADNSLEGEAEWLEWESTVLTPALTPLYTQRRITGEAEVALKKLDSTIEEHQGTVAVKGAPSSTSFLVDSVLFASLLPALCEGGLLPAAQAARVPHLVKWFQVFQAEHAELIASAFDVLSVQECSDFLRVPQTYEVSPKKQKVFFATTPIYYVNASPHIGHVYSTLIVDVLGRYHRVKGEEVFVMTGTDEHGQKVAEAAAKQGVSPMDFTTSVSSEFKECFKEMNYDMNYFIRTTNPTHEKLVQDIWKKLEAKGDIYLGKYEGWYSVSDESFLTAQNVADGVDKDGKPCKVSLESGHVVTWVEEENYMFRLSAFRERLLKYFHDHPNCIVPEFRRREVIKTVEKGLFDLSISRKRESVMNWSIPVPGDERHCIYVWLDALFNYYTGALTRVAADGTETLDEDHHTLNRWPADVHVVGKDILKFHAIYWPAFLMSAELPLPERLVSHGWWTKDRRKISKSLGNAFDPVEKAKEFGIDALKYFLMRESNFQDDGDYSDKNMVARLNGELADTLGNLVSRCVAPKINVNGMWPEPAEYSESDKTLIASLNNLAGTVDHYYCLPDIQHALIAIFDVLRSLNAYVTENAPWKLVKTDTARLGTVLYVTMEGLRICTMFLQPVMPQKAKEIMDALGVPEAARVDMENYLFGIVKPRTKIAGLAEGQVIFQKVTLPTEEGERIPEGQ

All values are in %. How 0% and 100% were set is not recorded. Most values in the screen are low, and negative values occur. The compounds are a random part of those screened. A dash means the value is not listed here; it may have been measured.

A: 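Assay on Mycobacterium tuberculosis, filed only as a heat shock assay from Cornell; the read-out is not stated. The concentration is filed as 10 mM, unlikely as a test dose, so the dose is not known. Direction is inferred from retests: higher values go with stronger inhibition. Size under these conditions: about 69,000 compounds, about 930 of them at 50% or above in at least one test.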
B: 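Primary screen of methionyl-tRNA synthetase; the read-out is not stated. Target: Methionyl-tRNA synthetase (putative), Leishmania donovani (UniProt E9BF75). The test concentration is not given. Values are per cent inhibition. Of about 68,000 compounds tested this way, about 24 (0.035%) reached 50% or more in at least one test.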
C: 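Whole-cell assay for inhibitors of Mycobacterium tuberculosis growth, labelled Cornell in the record; the read-out is not stated. The concentration is filed as 10 mM, unlikely as a test dose, so the dose is not known. Higher means stronger inhibition (inferred from two other growth screens of the library). Of about 53,000 compounds tested this way, about 900 (1.7%) reached 50% or more in at least one test.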

| # | SMILES | A | B | C |
|---|---|---|---|---|
| 1 | `CCNc1cc2c(nn1)CCN(C(=O)c1cccc3c1OCCO3)C2` | -16.63 | 7.692 | -43.88 |
| 2 | `O=C1[C@H]2CN(c3ncc(F)cn3)C[C@H]2CN1CC1CC1` | - | -5.764 | - |
| 3 | `O=C(COc1coc(CN2CCCCC2)cc1=O)NCc1ccccc1` | 35.28 | 16.2 | 1.956 |
| 4 | `CN1N=C(C(=O)NCCc2ccc(OC3CCCC3)cc2)CCC1=O` | 3.168 | 8.101 | 30.61 |
| 5 | `COc1ncccc1C(=O)N1CC[C@H]2C[C@@H](c3ccncn3)O[C@@H]2C1` | - | 23.92 | - |
| 6 | `CNC(=O)CN1CC[C@H]2CN(C(=O)c3ccc(C)nc3)C[C@H]2C1` | - | 13.33 | - |
| 7 | `CNC(=O)N1CCC2(CC1)c1ncc(-c3cccc(F)c3)n1CCN2C.O=C(O)C(F)(F)F` | 5.028 | - | 3.508 |
| 8 | `[H][C@]12CN(Cc3ccc[nH]3)C[C@@]1([H])OCCN(C(=O)c1ccccc1)C2` | 9.972 | - | -3.483 |
| 9 | `Cn1ncc2c1C(COCC1CC1)CN(Cc1nccs1)C2` (configuration not stated) | 2.249 | 20.59 | 15.7 |
| 10 | `Cc1cccc(CN2CCN(C(=O)c3cnc(C)[nH]c3=O)CC2)c1` | -13.74 | 8.533 | - |
| 11 | `O=C(c1c[nH]cn1)N1CCC(F)(F)C2(CCN(c3ncccn3)C2)C1` (configuration not stated) | - | 11.35 | - |
| 12 | `O=C(Cc1ccccc1Cl)Nc1cc(N2CCCC2)ncn1` | -8.291 | 12.15 | -43.17 |
| 13 | `O=C(O)C(F)(F)F.[H][C@@]12OCCN(CC3CCOCC3)[C@@]1([H])CC[C@H]2OCC1CCOCC1` | -13.97 | - | 12.55 |
| 14 | `O=C(O)C(F)(F)F.O=C(O)C(F)(F)F.[H][C@@]12CN(Cc3cccs3)C[C@]1([H])OCCN2CC1CCCO1` (some centres not stated) | -44.58 | - | -5.787 |
| 15 | `COc1cc(C#N)ccc1OCC(=O)NS(=O)(=O)c1cccnc1` | -8.208 | 10.97 | -57.01 |
| 16 | `O=C(N1CCCC1)N1CCC2(CC1)COCCN(Cc1cccnc1)C2` | - | 15.93 | - |
| 17 | `O=C(CCC1CCCO1)NCc1ccnc(-n2cccn2)c1` (configuration not stated) | -2.4 | 5.512 | 4.681 |
| 18 | `CN(Cc1ccncc1)C1COC2(CCN(Cc3nccn3C)CC2)C1.O=C(O)C(F)(F)F.O=C(O)C(F)(F)F.O=C(O)C(F)(F)F` (configuration not stated) | -17.06 | - | 0.04841 |
| 19 | `CC(C)C(=O)N1CCCC12CCCN(C(=O)c1ccno1)C2` (configuration not stated) | -5.131 | 9.489 | -5.358 |
| 20 | `Cc1ncc(CN2CCC(c3nc(O)cc(-c4ccsc4)n3)CC2)cn1` | -3.49 | 17.55 | 21.36 |
| 21 | `CCC(=O)N(C)Cc1cccc(OC(C)C)c1` | -0.1466 | 9.341 | -3.157 |
| 22 | `Cn1cccc1C(=O)NCc1cn2c(n1)CN(Cc1cccnc1)CC2.O=C(O)C(F)(F)F.O=C(O)C(F)(F)F` | 6.165 | - | -32.6 |
| 23 | `Cc1nnc(N2C[C@H](C(=O)NCc3ccco3)[C@@H]3CCO[C@@H]3C2)s1` | - | 15.6 | - |
| 24 | `O=C(NCCNS(=O)(=O)c1ccc2c(c1)CCCC2)c1ccoc1` | 1.807 | 11.71 | 12.11 |
| 25 | `COc1ccccc1N1CCN(C(=O)NC(C)c2nncn2C)CC1` (configuration not stated) | -13.99 | 12.43 | -24.36 |
| 26 | `Cc1csc(CNC(=O)NC(C)c2ccc3c(c2)OCCO3)n1` (configuration not stated) | -15.13 | 8.355 | -52.37 |
| 27 | `COCCC(=O)N1CCn2cc(CN3CCN(C)CC3)nc2C1` | - | 17.92 | - |
| 28 | `O=C(CCc1ccc(=O)[nH]n1)N1CCCC(COc2ccc(F)cc2)C1` (configuration not stated) | 6.057 | 15.04 | 14.98 |
| 29 | `Cc1c[nH]nc1C1CCN(C(=O)C2CCCC2)C1` (configuration not stated) | -16.25 | 15.19 | 6.037 |
| 30 | `Cc1ccc(NC(=O)N2CCOC(C(N)=O)C2)cc1C(F)(F)F` (configuration not stated) | -19.68 | 0.6135 | 20.39 |
| 31 | `Cn1c(C2CCCN2C(=O)CN2CSCC2=O)nc2ccccc21` (configuration not stated) | -9.592 | 14.91 | - |
| 32 | `Cn1c(=O)ccn(CC(=O)NCC2Cc3ccccc3O2)c1=O` (configuration not stated) | -4.219 | 6.964 | - |
| 33 | `O=C(O)C(F)(F)F.O=C(O)C(F)(F)F.O=C(c1cnccn1)N1CCCC2(CCN(Cc3cccnc3)C2)C1` (configuration not stated) | -24.16 | - | 16.84 |
| 34 | `Cc1cc(F)ccc1S(=O)(=O)NCC(O)c1cccn1C` (configuration not stated) | 26.94 | 4.317 | 14.69 |
| 35 | `COCC(=O)N1CCc2cccc(S(=O)(=O)N3CCN(C)CC3)c2C1` | -29.44 | 12.5 | -10.54 |
| 36 | `Cc1cc(C)nc(N2CCN(Cc3nccn3C)CC2)n1.O=CO` | -17.6 | - | -4.183 |
| 37 | `O=C(O)C1(n2cccn2)CCN(c2nc(-c3ccccc3)no2)CC1` | 9.507 | 6.443 | 20.04 |
| 38 | `O=C(c1cccc2ncccc12)N1CCCC(n2ccnc2)C1` (configuration not stated) | 8.638 | 21.05 | - |
| 39 | `Cc1nc(C2CCCN2Cc2nc(C3CC3)no2)no1` (configuration not stated) | -15.24 | 19.37 | - |
| 40 | `O=C(c1ccc2nccnc2c1)N1CCN(CCO)[C@@H]2CS(=O)(=O)C[C@@H]21` | - | 10.18 | - |
| 41 | `CCC(NC(=O)CCCN1CCCCC1)c1cn2cccnc2n1` (configuration not stated) | 0.4162 | -10.47 | -0.8662 |
| 42 | `CN1CCCC(c2nccnc2-c2cccc(Cl)c2)C1` (configuration not stated) | -12.2 | 17.81 | 17.33 |
| 43 | `Cc1ncsc1CNC(=O)NCC1(c2ccc3c(c2)OCO3)CC1` | -10.73 | 5.914 | -22.11 |
| 44 | `NCC1(c2cccc(C(F)(F)F)c2)CCCC1` | -6.778 | - | - |

Once more, the final 5:

{"smiles": "O=C(c1ccc2nccnc2c1)N1CCN(CCO)[C@@H]2CS(=O)(=O)C[C@@H]21", "B": 10.18}
{"smiles": "CCC(NC(=O)CCCN1CCCCC1)c1cn2cccnc2n1", "stereo": "configuration not stated", "A": 0.4162, "B": -10.47, "C": -0.8662}
{"smiles": "CN1CCCC(c2nccnc2-c2cccc(Cl)c2)C1", "stereo": "configuration not stated", "A": -12.2, "B": 17.81, "C": 17.33}
{"smiles": "Cc1ncsc1CNC(=O)NCC1(c2ccc3c(c2)OCO3)CC1", "A": -10.73, "B": 5.914, "C": -22.11}
{"smiles": "NCC1(c2cccc(C(F)(F)F)c2)CCCC1", "A": -6.778}